Assay [1] deals with WD40-SNAP (LIS1 residues 90-410) (human) (UniProt P43034). Put plainly: SEC-MALS; 70 μL at 1 mg/mL, GF150 buffer, Superdex 200 5/150; both purified.
The target of assay [2] is T1, GST-JIP3^563-585 (JIP3^helix construct) (human) (UniProt Q9UPT6).
T1 sequence: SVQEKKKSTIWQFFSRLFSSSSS
Briefly: pull-down; GST pull-down on glutathione resin with GST-JIP3^helix constructs as bait and RH1 domain constructs as prey; purified recombinant proteins, 50 - 300 pmol each in 20 μL GST-PD buffer (50 mM HEPES pH 7.5, 100 mM KCl, 1 mM MgCl2, 1 mM DTT), room temperature; Coomassie-stained SDS-PAGE; both purified.

Results are given in words; binding and its absence hold for the method and conditions named. For some assays here: Sequences can lack the tags named with a protein.

B1: WD40-SNAP (LIS1 residues 90-410) (domain or fragment, UniProt P43034 90-410)
chain: DPKEWIPRPPEKYALSGHRSPVTRVIFHPVFSVMVSASEDATIKVWDYETGDFERTLKGHTDSVQDISFDHSGKLLASCSADMTIKLWDFQGFECIRTMHGHDHNVSSVAIMPNGDHIVSASRDKTIKMWEVQTGYCVKTFTGHREWVRMVRPNQDGTLIASCSNDQTVRVWVVATKECKAELREHEHVVECISWAPESSYSSISEATGSETKKSGKPGPFLLSGSRDKTIKMWDVSTGMCLMTLVGHDNWVRGVLFHSGGKFILSCADDKTLRVWDYKNKRCMKTLNAHEHFVTSLDFHKTAPYVVTGSVDQTVKVWECR
Take B1: the binding result in assay [1] is on record as “no binding (tested: 1 mg/mL)”.

B2: JIP3 1-108_V60Q (RH1-domain mutant) (domain or fragment, UniProt Q9ESN9-5 1-108)
chain: MMEIQMDEGGGVVVYQDDYCSGSVMSERVSGLAGSIYREFERLIHCYDEEVVKELMPLVQNVLENLDSVLSENQEHEVELELLREDNEQLLTQYEREKALRKQAEEKF
Regarding B2, in assay [2], the binding result is “no binding (tested: 50 - 300 pmol each in 20 μL)”.

(Values after PMC7615804.)
